{
  "source": "paper doi:10.1101/2025.05.13.653691",
  "molecular_target": "2xFLAG-tagged FRH (FRQ-Interacting RNA-helicase) (Neurospora crassa)",
  "experiment": "co-IP",
  "note": "Results are given in words; binding and its absence hold for the method and conditions named. Binding seen in cells or lysates may run through a third protein. Binding calls can cover weak binding; strength is not graded here.",
  "data": [
    {"binder": "FRQ (Frequency), hypophosphorylated, native (protein, UniProt P19970 1-989, hypophosphorylated (sites not given)) MADSGDKSQGMRPPPFDSRGHPLPRRASPDKSITLENHRLARDTSSRVTSSSALGVTESQPQLKSSPTRRNSSGESEPTNWFNQSNRNPAAAFHDESHIMEVDPPFYQKETDSSNEESRYPPGRNPVHPPGGVQLPGFRPVAAHSSAADDYRSVIDDLTVENKRLKEELKRYKQFGSDVMRKEKLFEIKVHGLPRRKKRELEATLRDFAASLGDSSESTSQRRKTGRHGTAVHSSGVSLSKHDSSSSSRSRPVDSAYNSMSTGRSSHAPHSSGPSLGRPSLTRAKSVGTQKVENYLRDTPDGLLPHHIVMTDKEKKKLVVRRLEQLFTGKISGRNMQRNQSMPSMDAPLAPEGTNMAPPRPPPEGLREACIQLQDGDNPRKNRSSKDNGSASNSGGDQTELGGTGTGSGDGSGSGGRTGNNTSPPGAIAPDQRPTRPRDLDPDRVQIPSENMDYIRHLGLVSPEFLQGSRTSYQDVAPDAEGWVYLNLLCNLAQLHMVNVTPSFIRQAVSEKSTKFQLSADGRKIRWRGGTDGTKFSSDSSEDKSQQSPMTEDTEDGSDKNGRRKKRKTQQASSEIGRFGPSRSPSDTFHYKPMFVHRNSSSIETSLEESMSQGSEDAVDESNMGNSKWDFSGSGTTQQRRKRRYDGAIVYYTGAPFCTDLSGDPGDMSPTAQMTAGREVEGSGSGDEVEHVLQRTLSGSSLPIRPLSDDRARVAEVLDFDPGNPPELVADDGSSPNDEDFVFPWCEDPAKVRIQPIAKEVMEPSGLGGVLPDDHFVMLVTTRRVVRPILQRQLSRSTTSEDTAEFIAERLAAIRTSSPLPPRSHRLTVAPLQVEYVSGQFRRLNPAPLPPPAIFYPPFSTDSSWDDGDDLASDDEEVEEVEEDSYSEGQISRRANPHFSDNNTYMRKDDLAFDTETDVRMDSDDNRLSDSGHNMRAMMPRAEAVDGDDSPLAAVTGKEVDMLHTGSSVATAGGAESGYSSSMEDVSSS", "values": [
      {"measurement": "binding", "result": "binds"}
    ]},
    {"binder": "FRQ (Frequency), hyperphosphorylated in vitro by CK1a (protein, UniProt P19970 1-989, hyperphosphorylated by recombinant CK1a and ATP (sites not given)) MADSGDKSQGMRPPPFDSRGHPLPRRASPDKSITLENHRLARDTSSRVTSSSALGVTESQPQLKSSPTRRNSSGESEPTNWFNQSNRNPAAAFHDESHIMEVDPPFYQKETDSSNEESRYPPGRNPVHPPGGVQLPGFRPVAAHSSAADDYRSVIDDLTVENKRLKEELKRYKQFGSDVMRKEKLFEIKVHGLPRRKKRELEATLRDFAASLGDSSESTSQRRKTGRHGTAVHSSGVSLSKHDSSSSSRSRPVDSAYNSMSTGRSSHAPHSSGPSLGRPSLTRAKSVGTQKVENYLRDTPDGLLPHHIVMTDKEKKKLVVRRLEQLFTGKISGRNMQRNQSMPSMDAPLAPEGTNMAPPRPPPEGLREACIQLQDGDNPRKNRSSKDNGSASNSGGDQTELGGTGTGSGDGSGSGGRTGNNTSPPGAIAPDQRPTRPRDLDPDRVQIPSENMDYIRHLGLVSPEFLQGSRTSYQDVAPDAEGWVYLNLLCNLAQLHMVNVTPSFIRQAVSEKSTKFQLSADGRKIRWRGGTDGTKFSSDSSEDKSQQSPMTEDTEDGSDKNGRRKKRKTQQASSEIGRFGPSRSPSDTFHYKPMFVHRNSSSIETSLEESMSQGSEDAVDESNMGNSKWDFSGSGTTQQRRKRRYDGAIVYYTGAPFCTDLSGDPGDMSPTAQMTAGREVEGSGSGDEVEHVLQRTLSGSSLPIRPLSDDRARVAEVLDFDPGNPPELVADDGSSPNDEDFVFPWCEDPAKVRIQPIAKEVMEPSGLGGVLPDDHFVMLVTTRRVVRPILQRQLSRSTTSEDTAEFIAERLAAIRTSSPLPPRSHRLTVAPLQVEYVSGQFRRLNPAPLPPPAIFYPPFSTDSSWDDGDDLASDDEEVEEVEEDSYSEGQISRRANPHFSDNNTYMRKDDLAFDTETDVRMDSDDNRLSDSGHNMRAMMPRAEAVDGDDSPLAAVTGKEVDMLHTGSSVATAGGAESGYSSSMEDVSSS", "values": [
      {"measurement": "binding", "result": "no binding"}
    ]}
  ]
}
